Here are results for 48 compounds from PMC6925144, “A prospective compound screening contest identified broader inhibitors for Sirtuin 1” (Scientific Reports, 2019).

By UniProt entry, the sequences of proteins in these tests, tags left out. Residues count along the entry.
UniProt Q96EB6, 2-747 limits assumed: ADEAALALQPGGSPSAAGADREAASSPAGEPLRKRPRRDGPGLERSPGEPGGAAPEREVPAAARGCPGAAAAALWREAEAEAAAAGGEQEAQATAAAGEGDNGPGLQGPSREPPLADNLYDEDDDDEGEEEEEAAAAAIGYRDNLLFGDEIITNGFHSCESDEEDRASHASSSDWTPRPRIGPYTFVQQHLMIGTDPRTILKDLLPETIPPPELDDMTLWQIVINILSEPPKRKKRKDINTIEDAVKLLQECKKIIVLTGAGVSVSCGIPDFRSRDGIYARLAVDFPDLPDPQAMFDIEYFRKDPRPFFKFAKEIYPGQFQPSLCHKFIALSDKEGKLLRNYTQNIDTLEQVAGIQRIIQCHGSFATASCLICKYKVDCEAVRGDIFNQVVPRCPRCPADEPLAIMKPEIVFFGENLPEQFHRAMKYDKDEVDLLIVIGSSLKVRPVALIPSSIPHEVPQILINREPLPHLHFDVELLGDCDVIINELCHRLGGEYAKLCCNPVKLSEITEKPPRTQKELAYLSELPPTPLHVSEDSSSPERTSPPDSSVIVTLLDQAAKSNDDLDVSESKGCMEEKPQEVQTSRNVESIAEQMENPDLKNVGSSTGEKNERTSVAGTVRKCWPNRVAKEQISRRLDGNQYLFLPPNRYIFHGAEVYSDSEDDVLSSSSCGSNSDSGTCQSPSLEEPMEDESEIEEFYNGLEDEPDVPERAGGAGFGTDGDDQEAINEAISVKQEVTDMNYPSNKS

In all, about 3,200 compounds were measured (“TSA(with NAD+) / Primary screening (TSA) / delta Tm (K)”: median about -0.04, highest 2% from about 0.37 on). The list shows a part of the results.

The target in this experiment is NAD-dependent deacetylase Sirtuin 1 (human, UniProt Q96EB6). The experiment can be described thus: primary screen, delta tm. Set-up: single well (n = 1, as 'the same TSA'). Particulars: 10 µM. The procedure: A total of 3,192 compounds extracted from the proposed lists were first screened by thermal shift assay (TSA), which determined a melting temperature shift (ΔTm) of Sirtuin 1 upon the addition of a test compound at a concentration of 10 µM (n = 1) with primary hit criteria of ΔTm > 0.45 K or ΔTm < −1.5 K. Primary hits (48 compounds) were retested in the same assay at three concentrations (5, 10, 20 µM, n = 4) for hit confirmation and for dose-dependency check. Secondary hits (41 compounds) were checked their selectivity for Sirtuin 1 based on counterscreening on unrelated protein targets (bovine carbonic anhydrase (CA) and recombinant SH2 domain of hABL1 kinase (ABL1)) at three different concentrations (5, 10, 20 µM, n = 4), which yielded 38 hit compounds, hereafter referred to as TSA hits. The TSA screening above was conducted in the absence of NAD+. As noted, the structure of Sirtuin 1 is different in the presence of NAD+ and substrate. The chemical profile of TSA hits found from the different conditions could be different. […] As a result, 39 TSA hits were found.
For the compound `Cc1c(C(=O)NC2CCCCCC2)oc2c1ccc1ccccc12`, the “TSA(with NAD+) / Primary screening (TSA) / delta Tm (K)” value was -0.14 K. As to `COc1ccc(N2CC(=O)C(c3n(C)c4ccccc4[n+]3C)=C2N)cc1`, the “TSA(with NAD+) / Primary screening (TSA) / delta Tm (K)” value was -0.08 K. The same measure for `O=C(O)/C=C/c1nc2ccccc2s1`: -0.03 K; for `Cc1cccc(C(C)(C)CNC(=O)c2ccc3c(c2)NC(=O)CCN3C)c1`: 0.15 K. Consider `Cn1cc(S(=O)(=O)Nc2ccc3c(c2)CCCN3Cc2ccccc2)cc1C(N)=O`, for which the “TSA(with NAD+) / Primary screening (TSA) / delta Tm (K)” value turned out to be 0.03 K. Regarding `CN(C)S(=O)(=O)c1cccc(NC(=S)NNc2ccnc3cc(Cl)ccc23)c1`, the “TSA(with NAD+) / Primary screening (TSA) / delta Tm (K)” value is listed as -0.21 K. Next, `CCCOc1ccc(C(=O)C2=C(O)C(=O)N(CCN3CCOCC3)C2c2ccc(OC)cc2)cc1` (stereo not drawn): 0.05 K. For `Cc1ccc2[nH]c3c(c2c1)CCCC3=O`, the “TSA(with NAD+) / Primary screening (TSA) / delta Tm (K)” value is -0.01 K. Next, `c1ccc2c(c1)oc1c(N3CCC(n4ccnn4)CC3)ncnc12`: -0.23 K; `COc1ccccc1SCc1cc(=O)n2ccccc2n1`: 0.02 K. The same measure for `COc1cc(C=C(C(=O)NCC2CCCO2)C(=O)NCC2CCCO2)ccc1OCC(=O)Nc1ccc(C)cc1` (stereo not drawn): -0.15 K. Take `CC1CCc2c(sc3ncnc(OCC(=O)N4CCc5ccccc54)c23)C1` (stereo not drawn): the “TSA(with NAD+) / Primary screening (TSA) / delta Tm (K)” value is reported as 0.15 K. For the compound `COc1cc(OC)c(OC)cc1C=C1C(=O)NC(=S)NC1=O`, the “TSA(with NAD+) / Primary screening (TSA) / delta Tm (K)” value was -0.16 K. Next, `CC1CCc2c(sc3ncnc(N4CCC(C(N)=O)CC4)c23)C1` (stereo not drawn): 0.26 K; `CCOC(=O)c1sc2nc(CSc3nncn3-c3ccccc3)[nH]c(=O)c2c1C`: -0.13 K; `O=S(=O)(c1ccc(C(F)(F)F)cc1)N1CCNCC1`: 0.03 K. The same measure for `Cc1ccc(N(C)S(=O)(=O)c2cccc(C(=O)NCCCn3cnc4ccccc43)c2)cc1`: 0.03 K; for `COc1ccc(C=C2C(=O)NC(=S)NC2=O)cc1OC`: -0.23 K; for `COc1ccc(C(=O)C2=C(O)C(=O)N(CCCN3CCOCC3)C2c2ccncc2)cc1OC` (stereo not drawn): -0.11 K. Next, `CNC(=O)CCN(C)c1cccc(F)c1C#N`: -0.34 K; `Cn1c(SCCCC(=O)c2ccccc2)nc2ccsc2c1=O`: -0.12 K. As to `O=C(NC(c1ccccc1)c1ccc2nc(C(F)(F)F)[nH]c2c1)C1=COCCO1` (stereo not drawn), the “TSA(with NAD+) / Primary screening (TSA) / delta Tm (K)” value is recorded as -0.14 K. As for `CC(C)N(Cc1ccccc1)C(=O)COC(=O)/C=C/c1ccc(S(=O)(=O)N2CCCCCC2)cc1`, the “TSA(with NAD+) / Primary screening (TSA) / delta Tm (K)” value amounted to 0.05 K. Next, `CC(OC(=O)/C=C/c1ccc2c(c1)OCO2)C(=O)Nc1cccc([N+](=O)[O-])c1` (stereo not drawn): -0.09 K; `O=C1NC(=O)C(=Cc2cn(-c3ccccc3)nc2-c2cc3ccccc3o2)C(=O)N1`: -0.11 K. Consider `O=C(O)CC[C@@H](O)C(=O)O`, for which the “TSA(with NAD+) / Primary screening (TSA) / delta Tm (K)” value is -0.03 K.

`NC(=S)c1ccc(C(=O)N2CCCC(C(=O)NC3CC3)C2)cc1` (stereo not drawn): the “TSA(with NAD+) / Primary screening (TSA) / delta Tm (K)” value turned out to be 0.11 K.

As for `CCC(CC)C(O)CN` (stereo not drawn), the “TSA(with NAD+) / Primary screening (TSA) / delta Tm (K)” value was 0.09 K. For `O=C(NCCn1cnc2ccccc21)c1ccc(N2CCCCC2=O)cc1`, the “TSA(with NAD+) / Primary screening (TSA) / delta Tm (K)” value is listed as -0.11 K. In the case of `O=C(O)CN1C(=O)COc2ccccc21`, the “TSA(with NAD+) / Primary screening (TSA) / delta Tm (K)” value is -0.11 K. The same measure for `Cc1cc(C)n(-c2cccc(N3CC(C(=O)O)CC3=O)c2)n1` (stereo not drawn): -0.09 K; for `O=C(Nc1cccc(S(=O)(=O)N2CCOCC2)c1)c1ccccc1OCc1ccccc1`: -0.08 K; for `O=C(CCCc1nc2ccccc2s1)Nc1cccc(S(=O)(=O)NCc2ccco2)c1`: -0.11 K. Next, `Cn1c(=O)[nH]c(=O)c2c1nc(N1CCC(C(N)=O)CC1)n2CCSc1nc2ccccc2s1`: -0.11 K; `CCc1ccc(CNC(=O)CCCc2nc(-c3ccc(F)cc3)no2)cc1`: -0.01 K; `Cc1ccc(-c2nc(CC(=O)Nc3cccc(Cn4[nH]c(=O)ccc4=O)c3)cs2)o1`: -0.09 K. In the case of `CCn1c(C)cc(C(=O)OC(C)C(=O)Nc2ccc(C(N)=O)cc2)c1C` (stereo not drawn), the “TSA(with NAD+) / Primary screening (TSA) / delta Tm (K)” value is reported as -0.02 K. Next, `Cc1ccc(C(C)C)c(OCC(=O)Nc2cc(C(N)=O)ccc2N2CCCC2)c1`: 0.06 K; `COc1cc(CN(C)C(=O)c2ccc(C)c(NC(=O)c3ccco3)c2)ccc1OCc1ccccc1`: -0.08 K; `CCc1ccc(C(=O)Nc2ccccc2C(=O)OC)cc1`: -0.02 K.

On to `O=C(CN1CCN(C(=O)c2ccc(-c3ccccc3Cl)o2)CC1)Nc1cccc(F)c1`, for which the “TSA(with NAD+) / Primary screening (TSA) / delta Tm (K)” value was 0.07 K. `COc1ccc(-n2c(C)c(C)c3c(N)ncnc32)cc1`: the “TSA(with NAD+) / Primary screening (TSA) / delta Tm (K)” value was -0.21 K. The same measure for `CCC(NC(=O)c1ccc(C(N)=O)cc1)C(c1ccc(C)cc1)n1cncn1` (stereo not drawn): 0.06 K; for `CC(N)CCc1ccc(O)cc1` (stereo not drawn): -0.13 K; for `O=C1CC(Cc2ccc(NC(=O)c3cc4ccccc4[nH]3)cc2)C(=O)N1` (stereo not drawn): -0.06 K.

For `COCC(C)(N)CN` (stereo not drawn), the “TSA(with NAD+) / Primary screening (TSA) / delta Tm (K)” value was -0.02 K.

Regarding `CN(C)C(=O)c1ccc2[nH]c3c(c2c1)CCCC3`, the “TSA(with NAD+) / Primary screening (TSA) / delta Tm (K)” value is -0.11 K. The same measure for `CCCOc1ccc(C2C(C(=O)c3ccco3)=C(O)C(=O)N2CCCN2CCOCC2)cc1` (stereo not drawn): 0.03 K.
